Screen size: about 210,000 compounds; about 5,900 (2.8%) were called active. Roughly 5% stayed inconclusive and do not appear here. Calls follow the shape of the dose curve; as a rule, active = well fitted activation curve with a large enough effect; inconclusive = small, poorly fitted or top-dose-only effect; inactive = no such curve, though single readings can be large or run the other way. The list shows a part of the results, in another mix than the full data. Entries without a call were filed so in the source.
Potency is read from the fitted curve at half-maximal effect.

A short description of the experiment: qHTS Assay for Enhancers of SMN2 Splice Variant Expression. Also: nearly all actives have a fitted effect of over 55% in size. As to activity change, positive = activation: % of control where 0% means no effect. The settings on record: HEK293 SMN2-luciferase splicing reporter, luminescence, 30-36 h; activity change, positive = activation: at 46.1 µM (top of the series) unless noted. In short, it runs like this:
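HEK293 cells carry an SMN2 […]–luciferase reporter in which exon 7 inclusion puts luciferase in frame. Cells were plated 10-12 h before compound addition, then incubated 30-36 h at 37C. ONE-Glo luminescence was read; sodium butyrate at 4.5 mM final served as control.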
(qHTS replaces the single test concentration by a dilution series.)
As for `COc1ccc(C(=O)NC(C(=O)N2CCc3ccccc32)C(C)C)cc1` (centres undefined), the activity change, positive = activation amounted to 72%.

Take `O=C(O)C1C2CCC(C2)C1C(=O)Nc1nc2ccccc2s1` (centres undefined): the activity change, positive = activation was determined as 39.4%.

On to `NC(=O)C1CCN(C(=O)c2cc(S(=O)(=O)N3CCOCC3)c(Cl)cc2Cl)CC1`, for which the activity change, positive = activation was determined as 55.3%.

Consider `O=C(c1cc(Sc2ccc(Cl)cc2)nc2ccccc12)N1CCN(c2ccccn2)CC1`, for which the “activity change, positive = activation” value was inactive: -39.3%.

`CCNC(=S)N/N=C/c1sc(N2CCCCC2)nc1-c1cccs1`: the activity change, positive = activation stood at 7.37%.

For the compound `Cc1cc(C)c(S(=O)(=O)N2CCCCC2)c(C)c1N(C)S(=O)(=O)c1ccc(Cl)cc1`, the “activity change, positive = activation” value was inactive: -37.2%.

On to `O=C(Nc1cc(C(=O)N2CCCC2)ccc1N1CCCC1)c1ccccc1F`, for which the activity change, positive = activation was 35.8%.

`COC(=O)C1CCN(C(=O)CCCOc2ccccc2)CC1`: the activity change, positive = activation amounted to 43.3%.

With `Cc1ccc(NC(=O)Nc2ccccc2)c(Br)c1`, the Potency was active: 12.6 µM.

Consider `CCC1CSC(Nc2ccc(C(=O)/C=C/c3ccc(OC)c(OC)c3)cc2)=N1` (centres undefined), for which the “activity change, positive = activation” value was inactive: -59.3%.

`CC(C)(C)c1ccc(S(=O)(=O)N(CCCN2CCOCC2)Cc2cccs2)cc1`: the activity change, positive = activation is -83%.

`COc1ccc(-c2cn3cc(C(F)(F)F)cc(Cl)c3n2)cc1`: the Potency is active: 2.82 µM.

Consider `COC(=O)c1[nH]c2ccc(C)cc2c1NC(=O)CN1CCN(c2ccccc2)CC1`, for which the “activity change, positive = activation” value is inactive: -78.4%.

As to `Cc1ccccc1C(=O)Nc1ccccc1`, the activity change, positive = activation worked out at 34.9%.

`CN(C)C=NC(=O)c1ccc([N+](=O)[O-])c(CS(=O)(=O)c2ccc(Cl)cc2)c1`: the activity change, positive = activation is -38.7%.

For `O=C1C2C3C=CC(C2C(=O)N1C1CCCCC1)C1C2C(=O)N(C4CCCCC4)C(=O)C2C31` (centres undefined), the “activity change, positive = activation” value is inactive: -34.8%.

On to `Nc1ccc(-c2nc3ccc(C(=O)O)cc3s2)cc1`, for which the activity change, positive = activation was -58.6%.

Turning to `CCn1c(C)cc(=S)c2ccccc21`, the activity change, positive = activation amounted to 32.8%.

For `COC(=O)N1CCN(c2ccc(C(C)=O)cc2)CC1`, the activity change, positive = activation was found to be 30.9%.

Turning to `COc1ccc(-c2nnc(SCC(=O)N3CCc4ccccc4C3)o2)cc1`, the activity change, positive = activation was -63.7%.

Take `CCN(CC)S(=O)(=O)c1ccc(NC(=O)c2ccc3c(=O)n4c(nc3c2)CCCCC4)cc1`: the “activity change, positive = activation” value was inactive: -64.8%.

In the case of `O=C1CC(c2ccncc2)c2cc3c(cc2N1)OCCO3` (centres undefined), the activity change, positive = activation amounted to 38.8%.

For `N#Cc1nc(N2CCCCC2)nc(N2CCOCC2)n1`, the activity change, positive = activation is -63.9%.

Take `CC(C)(C)c1ccc(/C=N/Nc2ccc(C(=O)O)cc2)cc1`: the activity change, positive = activation is inactive: -90.6% [at 1.84 µM].

`CCS(=O)(=O)c1c(S(=O)(=O)CC)c2cc(C(C)(C)C)ccn2c1C(=O)c1ccc(F)cc1`: the activity change, positive = activation is 20.4%.

For `Cc1cc(C=C2C(=O)c3ccccc3C2=O)c(C)n1-c1ccccc1`, the “activity change, positive = activation” value was inactive: -70.9%.

Turning to `Cc1cccc(-c2nnc(-c3ccc(N)cc3)o2)c1`, the Potency was active: 4.47 µM.

As to `COc1ccc(C(=O)O/N=C(/c2ccccc2)c2ccncc2)cc1`, the activity change, positive = activation is 78.9%.

Consider `c1ccc(-c2nc(NCc3ccco3)c3ccccc3n2)nc1`, for which the “activity change, positive = activation” value was inactive: -9.83%.

On to `O=C(Oc1ccc2c(=O)c(Oc3ccc4ccccc4c3)coc2c1)c1cccnc1`, for which the activity change, positive = activation is -8.15%.

Consider `CC(C)CCOCC(=O)Nc1cccc(C(=O)O)c1`, for which the Potency was active: 14.1 µM.

`Cc1c(NC(=O)C(C)NCC2CCCO2)c(=O)n(-c2ccccc2)n1C` (centres undefined): the activity change, positive = activation worked out at 47.1%.

Regarding `Cc1ccc(S(=O)(=O)c2c(C)nn(C(C)(C)C)c2OC(=O)c2ccc(Br)o2)cc1`, the “activity change, positive = activation” value is inactive: -70.4%.

For the compound `CCOCc1c(C(=O)Nc2cc(OCC)c(N3CCOCC3)cc2OCC)oc2ccccc12`, the “activity change, positive = activation” value was inactive: -59.3%.

`CC1=Nn2c(nc3sc4c(c3c2=O)CCCC4)SC1`: the Potency is active: 10 µM.

On to `Cc1ccc(C(c2c(C)n(C)n(-c3ccccc3)c2=O)c2c(C)n(C)n(-c3ccccc3)c2=O)s1`, for which the “activity change, positive = activation” value was inactive: -30.9%.

As for `CN(C)c1ccc(NC(=S)c2ccccn2)cc1`, the Potency was active: 0.501 µM.

In the case of `Clc1ccc(-c2noc(CSc3nnc(-c4ccncc4)n3-c3ccccc3)n2)cc1`, the activity change, positive = activation was -66.7%.

In the case of `CCCCN(CCCC)S(=O)(=O)c1ccc(NC(=O)c2ccc([N+](=O)[O-])cc2Cl)cc1`, the activity change, positive = activation is -77.6%.

For `CCC(=O)c1ccc(OCC(O)CN(CCc2ccccc2)Cc2ccccc2)cc1` (centres undefined), the activity change, positive = activation was -51.1%.

For `NNCCc1ccccc1`, the Potency entry is “inactive”.

In the case of `O=C(NCCN1CCOCC1)N1CCOCC1`, the activity change, positive = activation worked out at 35.3%.

Turning to `COc1ccccc1Nc1nc(N)nc(CSc2ncccn2)n1`, the activity change, positive = activation came out at 49.5%.

On to `Cc1cc(O)c(C(C)C)cc1NC(=O)Cn1nc(C)c2ccccc2c1=O`, for which the activity change, positive = activation worked out at 37.8%.

As for `Nc1nc(Cn2nnc(-c3ccccc3Cl)n2)nc(N2CCOCC2)n1`, the activity change, positive = activation worked out at 26.5%.

As for `CCOC(=O)c1c(C=O)c(C)n(Cc2ccc(Cl)cc2)c1C`, the activity change, positive = activation is 37.8%.

Regarding `CCc1ccc(NC(=O)N(C2CCCCC2)C(C)c2cccnc2)cc1` (centres undefined), the “activity change, positive = activation” value was inactive: -21%.

Consider `O=C(c1ccco1)N1CCN(S(=O)(=O)c2ccc(F)cc2)CC1`, for which the activity change, positive = activation amounted to 38.1%.

Turning to `COCCn1c(SCC(=O)N2CCCCC2)nc2cccnc21`, the activity change, positive = activation was found to be 29.6%.

Take `CCN(CC)CCN(C(=O)c1ccc(Br)s1)c1nc2cc3c(cc2s1)OCCO3`: the activity change, positive = activation is -17.8%.

As to `CS(=O)(=O)c1cccc(NC(=O)c2ccc(Cl)c(Cl)c2)c1`, the activity change, positive = activation is 51.3%.

Turning to `COc1ccccc1N1CCN(C2=Nc3cccc4cccc2c34)CC1`, the activity change, positive = activation amounted to 55.6%.

Regarding `C=CCOc1cccc(C2/C(=C(\O)c3ccc(F)cc3)C(=O)C(=O)N2CCN(C)C)c1` (centres undefined), the activity change, positive = activation is 24.9%.

For the compound `COc1nc(NCCN2CCOCC2)nc(Nc2ccccc2)n1`, the activity change, positive = activation turned out to be 43.1%.

In the case of `COc1ccc(CCC(=O)N2CCN(C3CCCCC3)CC2)cc1`, the activity change, positive = activation was 47.1%.

For the compound `CCN1CCN(Cc2ccc(NC(=O)Nc3ccccc3OC)cc2)CC1`, the activity change, positive = activation worked out at 130%.

With `NC1=NC(=Nc2cccc(Cl)c2)c2ccccc21`, the activity change, positive = activation is -44.9%.

`COc1cccc(NC(=O)COC(=O)c2c(F)cccc2Cl)c1`: the activity change, positive = activation was determined as 62.1%.

Consider `O=C(N/N=C/c1ccc(OC(F)F)cc1)C1=COCCO1`, for which the Potency is active: 11.2 µM.

For the compound `COc1ccc(-c2cc(=O)c3ccccc3o2)cc1`, the Potency is active: 10 µM.

On to `O=C(Nc1nc2ccccc2[nH]1)c1ccc(Br)o1`, for which the Potency is active: 12.6 µM.

As to `O=C(/C=C/c1ccc(O)c(O)c1)NC(=O)c1ccccc1O`, the Potency was active: 31.6 µM.

With `CCOC(=O)c1sc(NC(=O)c2cc(-c3ccccc3)nc3ccccc23)c(C#N)c1C`, the “activity change, positive = activation” value is inactive: -52%.

As to `O=[N+]([O-])c1ccccc1CSc1nnc2ccccn12`, the activity change, positive = activation stood at 188%.

Regarding `COc1ccc(C(=O)Nc2ccc(-c3ccc(C)o3)cc2)cc1S(=O)(=O)N1CCOCC1`, the activity change, positive = activation is -69.1%.

In the case of `O=C(Nc1ccc2c(c1)OCO2)c1c(F)cccc1F`, the Potency was active: 10 µM.

In the case of `Cc1ccc(S(=O)(=O)NCCCN2CCOCC2)cc1C`, the activity change, positive = activation worked out at 38%.

On to `C=CCN1C(=O)/C(=C\c2ccc(C)cc2)N=C1SCC(=O)NCCC`, for which the activity change, positive = activation was 30.3%.

As for `COC(=O)Cc1ccc(NC(=S)N2CCN(c3ccc(OC)cc3)CC2)cc1`, the “activity change, positive = activation” value was inactive: -46.1%.

The values are drawn from PubChem BioAssay AID1458 (National Center for Advancing Translational Sciences (NCATS), 2008).
